## Drug screen on melanoma cell lines: apoptosis marker

All values are for the listed drug together with cisplatin (8000 nM): N.N.[Cl][Pt][Cl]

Drug key:
fludarabine: Nc1nc(F)nc2c1ncn2[C@@H]1O[C@H](CO)[C@@H](O)[C@@H]1O at 1000 nM
pazopanib: Cc1ccc(Nc2nccc(N(C)c3ccc4c(C)n(C)nc4c3)n2)cc1S(N)(=O)=O at 2000 nM
OSI-906: C[C@]1(O)C[C@@H](c2nc(-c3ccc4ccc(-c5ccccc5)nc4c3)c3c(N)nccn32)C1 at 2000 nM
CP-690550: C[C@@H]1CCN(C(=O)CC#N)C[C@@H]1N(C)c1ncnc2[nH]ccc12 at 5000 nM
L-779450: Oc1cc(-c2nc(-c3ccccc3)[nH]c2-c2ccncc2)ccc1Cl at 1000 nM
lestaurtinib: C[C@]12O[C@H](C[C@]1(O)CO)n1c3ccccc3c3c4c(c5c6ccccc6n2c5c31)CNC4=O at 20 nM
tamatinib: COc1cc(Nc2ncc(F)c(Nc3ccc4c(n3)NC(=O)C(C)(C)O4)n2)cc(OC)c1OC at 2000 nM
Src-I1: COc1cc2ncnc(Nc3ccc(Oc4ccccc4)cc3)c2cc1OC at 10000 nM

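Human melanoma cell lines in 1,536-well plates were treated with two drugs together for 72 h, then fixed, stained and imaged. Values are the share of nuclei positive for cleaved PARP as a percentage of the same share in the DMSO control: 100 is the control level, higher means more apoptosis. Concentrations were fixed for each drug; these are the higher of two levels. The file gives one value for each pair and line, without errors, so small differences may be noise. The marker varies much from line to line, for technical or biological reasons.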
An unselected part of the screen is shown.
A dash means that no value is listed here.

Cell line,lestaurtinib,tamatinib,OSI-906,Src-I1,fludarabine,pazopanib,CP-690550,L-779450
MeWo,213,159,98.6,143,97.2,57.4,145,76.4
UACC-62,268,126,201,205,126,209,79.8,370
IPC-298,157,135,139,200,32.9,154,196,152
WM1716,57.8,284,182,225,74.6,59.1,41.0,177
COLO 792,224,283,101,138,310,60.0,166,106
IST-MEL1,131,134,90.0,59.9,156,89.9,107,201
MEL-HO,111,86.7,74.9,90.4,186,183,36.3,607
SK-MEL-30,263,187,94.9,171,1470,132,135,96.7
RPMI-7951,185,139,150,226,208,54.0,70.1,360
SK-MEL-5,749,398,42.6,162,2150,107,159,64.8
LB2518-MEL,138,107,83.4,55.0,92.5,79.1,92.6,112
A101D,148,838,173,247,60.3,40.6,81.0,102
COLO 800,228,236,156,45.7,98.9,178,20.6,139
G-361,288,228,126,257,198,109,75.8,230
SK-MEL-28,257,202,159,165,893,126,161,121
SK-MEL-2,200,79.9,97.9,82.3,3490,50.8,264,523
RVH-421,140,91.7,51.7,68.3,293,69.1,286,276
A2058,103,186,41.4,95.7,109,69.9,152,119
WM3526,244,325,169,292,5900,114,171,464
501mel,-,-,-,152,-,-,-,133
MZ2-MEL,229,229,106,104,151,172,151,93.3
WM115,360,79.9,79.7,96.2,80.0,159,167,89.1
COLO 829,75.0,154,82.2,110,265,154,84.9,129
WM1745,124,165,151,-,83.8,94.0,68.7,-
WM3619,184,135,96.0,104,110,124,109,119
UACC-257,238,255,222,178,3460,260,196,159
A375,446,-,297,123,288,132,-,158
C32,71.7,177,127,149,98.7,203,301,98.2
WM451Lu,193,191,40.9,273,166,94.0,72.2,131
LOX IMVI,57.1,165,42.0,107,188,110,106,128

Once more, the final 2:

| Cell line | lestaurtinib | tamatinib | OSI-906 | Src-I1 | fludarabine | pazopanib | CP-690550 | L-779450 |
|---|---|---|---|---|---|---|---|---|
| WM451Lu | 193 | 191 | 40.9 | 273 | 166 | 94.0 | 72.2 | 131 |
| LOX IMVI | 57.1 | 165 | 42.0 | 107 | 188 | 110 | 106 | 128 |

From a melanoma drug combination screen (doi:10.1371/journal.pone.0140310); values rounded.